The results in this text go back to patent JP2014141434A.

The chains behind the UniProt entries cited, without tags or fusion partners. Where a name states a change or a piece, a line headed by the entry shows the natural chain unless it says otherwise.
UniProt Q8WZ75: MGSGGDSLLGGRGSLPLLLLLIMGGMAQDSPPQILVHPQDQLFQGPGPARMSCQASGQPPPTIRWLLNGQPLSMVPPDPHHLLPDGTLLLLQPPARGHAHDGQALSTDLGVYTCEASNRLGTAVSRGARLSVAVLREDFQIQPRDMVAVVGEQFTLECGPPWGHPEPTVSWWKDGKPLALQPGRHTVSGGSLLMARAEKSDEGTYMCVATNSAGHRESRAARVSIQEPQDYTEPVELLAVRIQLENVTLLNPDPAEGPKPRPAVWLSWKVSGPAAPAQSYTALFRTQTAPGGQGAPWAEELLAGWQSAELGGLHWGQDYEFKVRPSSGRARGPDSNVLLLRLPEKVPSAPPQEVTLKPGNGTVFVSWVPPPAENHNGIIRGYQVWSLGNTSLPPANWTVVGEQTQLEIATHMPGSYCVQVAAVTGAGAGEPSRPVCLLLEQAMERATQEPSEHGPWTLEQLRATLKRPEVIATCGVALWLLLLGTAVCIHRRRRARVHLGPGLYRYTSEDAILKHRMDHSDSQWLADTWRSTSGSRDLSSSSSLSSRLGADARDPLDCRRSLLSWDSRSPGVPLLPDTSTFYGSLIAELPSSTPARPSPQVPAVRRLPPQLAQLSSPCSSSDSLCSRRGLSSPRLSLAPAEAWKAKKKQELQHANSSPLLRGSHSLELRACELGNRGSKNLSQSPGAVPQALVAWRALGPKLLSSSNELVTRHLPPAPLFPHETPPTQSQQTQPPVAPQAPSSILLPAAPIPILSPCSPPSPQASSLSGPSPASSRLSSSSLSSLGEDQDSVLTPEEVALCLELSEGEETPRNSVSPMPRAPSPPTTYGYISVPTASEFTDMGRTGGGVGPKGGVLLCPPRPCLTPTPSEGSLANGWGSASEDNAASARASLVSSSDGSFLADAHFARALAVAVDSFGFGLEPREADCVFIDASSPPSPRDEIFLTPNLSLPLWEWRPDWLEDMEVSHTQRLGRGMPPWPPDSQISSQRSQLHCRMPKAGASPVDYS

Results are given in words; binding and its absence hold for the method and conditions named. Some entries that bind do so weakly or less than the wild type.

The target of this assay is T1, N末端FLAG−tag付加型ヒトROBO4細胞外領域ドメイン欠損体 hROBO4−46 (human) (UniProt Q8WZ75).
T1 sequence: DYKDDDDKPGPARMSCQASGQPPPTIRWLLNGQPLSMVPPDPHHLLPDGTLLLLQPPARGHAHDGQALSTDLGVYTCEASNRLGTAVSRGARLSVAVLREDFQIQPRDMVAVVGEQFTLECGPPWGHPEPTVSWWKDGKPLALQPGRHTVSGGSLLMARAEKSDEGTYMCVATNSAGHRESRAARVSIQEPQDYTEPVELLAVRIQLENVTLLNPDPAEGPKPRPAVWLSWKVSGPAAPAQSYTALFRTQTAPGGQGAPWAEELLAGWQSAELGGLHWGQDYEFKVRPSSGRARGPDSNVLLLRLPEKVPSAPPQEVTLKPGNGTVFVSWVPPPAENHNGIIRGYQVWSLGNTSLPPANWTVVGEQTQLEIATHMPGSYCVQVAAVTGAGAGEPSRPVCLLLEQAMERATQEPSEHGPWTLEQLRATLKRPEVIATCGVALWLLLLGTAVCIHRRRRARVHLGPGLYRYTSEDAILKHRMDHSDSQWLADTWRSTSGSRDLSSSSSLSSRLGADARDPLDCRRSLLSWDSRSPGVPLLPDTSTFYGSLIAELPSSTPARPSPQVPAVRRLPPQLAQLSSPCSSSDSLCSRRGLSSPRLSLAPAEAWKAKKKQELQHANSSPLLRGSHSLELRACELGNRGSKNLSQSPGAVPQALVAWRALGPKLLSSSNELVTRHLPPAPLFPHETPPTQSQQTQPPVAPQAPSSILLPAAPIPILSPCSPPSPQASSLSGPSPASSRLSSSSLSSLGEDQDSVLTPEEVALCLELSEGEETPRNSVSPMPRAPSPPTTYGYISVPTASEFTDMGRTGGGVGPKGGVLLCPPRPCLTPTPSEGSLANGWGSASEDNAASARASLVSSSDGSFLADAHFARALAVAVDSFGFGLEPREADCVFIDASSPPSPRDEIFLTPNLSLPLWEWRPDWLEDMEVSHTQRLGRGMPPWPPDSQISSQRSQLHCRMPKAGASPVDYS
Briefly: flow cytometry, transfected HEK293 cells, 10 μg/mL.

B1: 抗ROBO4マウスモノクローナル抗体 MAb1 (antibody, V domains shown)
VH: EVQLVESGGGLVKPGGSLKLSCAASGFTFSTYAMSWVRQTPEKRLEWVATISNGGTYTYYPDSVKGRFTISRDNAENTLYLQMSSLRSEDTAMYFCARLIYYDYLDYWGHGTTLTVSS
VL: DAVMTQTPLSLPVSLGDQASISCRSSQSLENSNGNTYLNWYFQKPGQSPQLLIYRVSNRFSGVLDRFSGSGSGTDFTLKISRVEAEDFGVYFCLQVTHVPWTFGGGTKLEIKR
Regarding B1, the binding result was “binds”.
